For at least one compound, name, drawing or mass did not settle the structure.
System: L929 fibroblast
Assay: Glutathione level recovery in L929 fibroblast after depletion by diethyl maleate (Experiment 1)
Type: cell-based, mouse
Details: 1 mM, 3.5 hours, 37° C.; FIG. 1

N[C@@H](CCC(=O)N[C@@H](CSSC[C@H](N)C(=O)O)C(=O)O)C(=O)O [γ-L-glutamyl-L-cystine]
Glutathione level in the cells reduced by diethyl maleate, as compared with the non-addition group: could significantly increase the glutathione level in the cells | Glutathione level recovery as compared with glutathione: inferior to glutathione

— patent publication US5316767A, “Whitening cosmetic composition” (priority 1990, dated 1994)
